Assay results from paper PMC5932847.
Results are given in words; binding and its absence hold for the method and conditions named. Binding seen in cells or lysates may run through a third protein. Some binding calls cover weakened binding; strength is not graded here.

Protein sequences, listed by entry. Tags and fused reporters are not part of them.
UniProt O43684: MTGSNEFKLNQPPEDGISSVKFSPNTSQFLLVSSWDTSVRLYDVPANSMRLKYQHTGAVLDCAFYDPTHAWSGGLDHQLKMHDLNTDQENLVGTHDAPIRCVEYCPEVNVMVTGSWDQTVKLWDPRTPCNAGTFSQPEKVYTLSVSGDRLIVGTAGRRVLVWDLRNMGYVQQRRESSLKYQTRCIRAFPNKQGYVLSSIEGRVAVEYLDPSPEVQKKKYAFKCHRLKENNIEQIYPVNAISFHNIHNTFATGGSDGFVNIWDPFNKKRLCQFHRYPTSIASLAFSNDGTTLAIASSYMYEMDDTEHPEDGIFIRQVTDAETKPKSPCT
UniProt P62993: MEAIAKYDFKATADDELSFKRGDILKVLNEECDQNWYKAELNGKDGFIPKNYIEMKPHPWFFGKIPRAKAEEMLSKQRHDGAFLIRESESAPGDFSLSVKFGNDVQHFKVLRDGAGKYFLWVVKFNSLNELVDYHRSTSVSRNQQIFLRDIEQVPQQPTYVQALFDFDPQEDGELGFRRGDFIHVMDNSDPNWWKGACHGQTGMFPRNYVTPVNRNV
UniProt P31749: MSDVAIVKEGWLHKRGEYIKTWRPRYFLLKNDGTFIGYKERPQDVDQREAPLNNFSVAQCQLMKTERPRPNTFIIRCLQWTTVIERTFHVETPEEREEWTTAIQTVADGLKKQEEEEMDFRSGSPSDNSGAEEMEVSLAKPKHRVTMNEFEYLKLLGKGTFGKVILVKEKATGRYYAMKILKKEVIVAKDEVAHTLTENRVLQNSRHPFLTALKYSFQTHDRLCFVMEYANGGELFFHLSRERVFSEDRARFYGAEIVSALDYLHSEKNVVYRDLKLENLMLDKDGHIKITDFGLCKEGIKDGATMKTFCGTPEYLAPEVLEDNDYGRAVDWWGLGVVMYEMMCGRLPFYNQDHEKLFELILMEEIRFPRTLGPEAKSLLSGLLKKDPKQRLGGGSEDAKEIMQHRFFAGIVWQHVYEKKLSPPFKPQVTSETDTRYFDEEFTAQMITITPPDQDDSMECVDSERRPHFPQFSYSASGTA

Tests used:
Experiment in all cases: co-IP; AKT1 pull down samples and reverse immunoprecipitation of over-expressed baits (BUB3, GRB2) from HEK293 cells; western blotting with antibodies against AKT1 and the relevant baits
[1] = target: BUB3, over-expressed bait (UniProt O43684)
[2] = target: GRB2, over-expressed bait (UniProt P62993)
[3] = target: AKT1 with C-terminal Strep and HA tags (UniProt P31749)

Substance	binding [1]	binding [2]	binding [3]
AKT1 detected in the BUB3 and GRB2 pulldown samples (from UniProt P31749 1-480) (enzyme)	binds	binds	–
BUB3 (from UniProt O43684 1-328)	–	–	binds
GRB2 (from UniProt P62993 1-217)	–	–	binds
